From article doi:10.1101/152850 (bioRxiv, 2017)
No constants are given. Whether binding was seen depends on the method and setting. One block for each binder: values may come before it.

Legend:
[1] = biological target: human IFIT1 L457E (human) (UniProt P09914); assay: SEC
[2] = biological target: human IFIT1 Y460E (human) (UniProt P09914); assay: SEC
[3] = biological target: human IFIT1 L464E (human) (UniProt P09914); assay: SEC
[4] = biological target: human IFIT1 L457A/L464A (IFIT1^DM-A) (human) (UniProt P09914); assay: SEC
[5] = biological target: human IFIT1 L457E/L464E (IFIT1^DM-E) (human) (UniProt P09914); assay: SEC-MALS
[6] = biological target: human IFIT1 L457E/L464E (IFIT1^DM-E) (human) (UniProt P09914); assay: AUC
[7] = biological target: human IFIT1 L457E/L464E (IFIT1^DM-E) (human) (UniProt P09914); assay: SEC
human IFIT5 (human) = human IFIT5 (human) (UniProt Q13325); assay: SEC

binding [2]: no binding (tested: 2 mg/ml (~ 36 μM))
B2: human IFIT1 Y460E (protein, UniProt P09914 1-478)
chain: MSTNGDDHQVKDSLEQLRCHFTWELSIDDDEMPDLENRVLDQIEFLDTKYSVGIHNLLAYVKHLKGQNEEALKSLKEAENLMQEEHDNQANVRSLVTWGNFAWMYYHMGRLAEAQTYLDKVENICKKLSNPFRYRMECPEIDCEEGWALLKCGGKNYERAKACFEKVLEVDPENPESSAGYAISAYRLDGFKLATKNHKPFSLLPLRQAVRLNPDNGYIKVLLALKLQDEGQEAEGEKYIEEALANMSSQTYVFRYAAKFYRRKGSVDKALELLKKALQETPTSVLLHHQIGLCYKAQMIQIKEATKGQPRGQNREKLDKMIRSAIFHFESAVEKKPTFEVAHLDLARMYIEAGNHRKAEENFQKLLCMKPVVEETMQDIHFHYGRFQEFQKKSDVNAIIHYLKAIKIEQASLTRDKSINSLKKLVLRKLRRKALDLESLSLLGFVYKLEGNMNEALEYEERALRLAADFENSVRQGP

binding [3]: no binding (tested: 2 mg/ml (~ 36 μM))
B3: human IFIT1 L464E (protein, UniProt P09914 1-478)
chain: MSTNGDDHQVKDSLEQLRCHFTWELSIDDDEMPDLENRVLDQIEFLDTKYSVGIHNLLAYVKHLKGQNEEALKSLKEAENLMQEEHDNQANVRSLVTWGNFAWMYYHMGRLAEAQTYLDKVENICKKLSNPFRYRMECPEIDCEEGWALLKCGGKNYERAKACFEKVLEVDPENPESSAGYAISAYRLDGFKLATKNHKPFSLLPLRQAVRLNPDNGYIKVLLALKLQDEGQEAEGEKYIEEALANMSSQTYVFRYAAKFYRRKGSVDKALELLKKALQETPTSVLLHHQIGLCYKAQMIQIKEATKGQPRGQNREKLDKMIRSAIFHFESAVEKKPTFEVAHLDLARMYIEAGNHRKAEENFQKLLCMKPVVEETMQDIHFHYGRFQEFQKKSDVNAIIHYLKAIKIEQASLTRDKSINSLKKLVLRKLRRKALDLESLSLLGFVYKLEGNMNEALEYYERAERLAADFENSVRQGP

binding (human IFIT5 (human)): no binding (tested: 2 mg/ml)
B6: human IFIT5 (protein, UniProt Q13325 1-482)
chain: MSEIRKDTLKAILLELECHFTWNLLKEDIDLFEVEDTIGQQLEFLTTKSRLALYNLLAYVKHLKGQNKDALECLEQAEEIIQQEHSDKEEVRSLVTWGNYAWVYYHMDQLEEAQKYTGKIGNVCKKLSSPSNYKLECPETDCEKGWALLKFGGKYYQKAKAAFEKALEVEPDNPEFNIGYAITVYRLDDSDREGSVKSFSLGPLRKAVTLNPDNSYIKVFLALKLQDVHAEAEGEKYIEEILDQISSQPYVLRYAAKFYRRKNSWNKALELLKKALEVTPTSSFLHHQMGLCYRAQMIQIKKATHNRPKGKDKLKVDELISSAIFHFKAAMERDSMFAFAYTDLANMYAEGGQYSNAEDIFRKALRLENITDDHKHQIHYHYGRFQEFHRKSENTAIHHYLEALKVKDRSPLRTKLTSALKKLSTKRLCHNALDVQSLSALGFVYKLEGEKRQAAEYYEKAQKIDPENAEFLTALCELRLSI

The remaining lines, values behind:

B1: human IFIT1 L457E (protein, UniProt P09914 1-478)
chain: MSTNGDDHQVKDSLEQLRCHFTWELSIDDDEMPDLENRVLDQIEFLDTKYSVGIHNLLAYVKHLKGQNEEALKSLKEAENLMQEEHDNQANVRSLVTWGNFAWMYYHMGRLAEAQTYLDKVENICKKLSNPFRYRMECPEIDCEEGWALLKCGGKNYERAKACFEKVLEVDPENPESSAGYAISAYRLDGFKLATKNHKPFSLLPLRQAVRLNPDNGYIKVLLALKLQDEGQEAEGEKYIEEALANMSSQTYVFRYAAKFYRRKGSVDKALELLKKALQETPTSVLLHHQIGLCYKAQMIQIKEATKGQPRGQNREKLDKMIRSAIFHFESAVEKKPTFEVAHLDLARMYIEAGNHRKAEENFQKLLCMKPVVEETMQDIHFHYGRFQEFQKKSDVNAIIHYLKAIKIEQASLTRDKSINSLKKLVLRKLRRKALDLESLSLLGFVYKLEGNMNEAEEYYERALRLAADFENSVRQGP
binding [1]: no binding (tested: 2 mg/ml (~ 36 μM))

B4: human IFIT1 L457A/L464A (IFIT1^DM-A) (protein, UniProt P09914 1-478)
chain: MSTNGDDHQVKDSLEQLRCHFTWELSIDDDEMPDLENRVLDQIEFLDTKYSVGIHNLLAYVKHLKGQNEEALKSLKEAENLMQEEHDNQANVRSLVTWGNFAWMYYHMGRLAEAQTYLDKVENICKKLSNPFRYRMECPEIDCEEGWALLKCGGKNYERAKACFEKVLEVDPENPESSAGYAISAYRLDGFKLATKNHKPFSLLPLRQAVRLNPDNGYIKVLLALKLQDEGQEAEGEKYIEEALANMSSQTYVFRYAAKFYRRKGSVDKALELLKKALQETPTSVLLHHQIGLCYKAQMIQIKEATKGQPRGQNREKLDKMIRSAIFHFESAVEKKPTFEVAHLDLARMYIEAGNHRKAEENFQKLLCMKPVVEETMQDIHFHYGRFQEFQKKSDVNAIIHYLKAIKIEQASLTRDKSINSLKKLVLRKLRRKALDLESLSLLGFVYKLEGNMNEAAEYYERAARLAADFENSVRQGP
binding [4]: no binding (tested: 2 mg/ml (~ 36 μM))

B5: human IFIT1 L457E/L464E (IFIT1^DM-E) (protein, UniProt P09914 1-478)
chain: MSTNGDDHQVKDSLEQLRCHFTWELSIDDDEMPDLENRVLDQIEFLDTKYSVGIHNLLAYVKHLKGQNEEALKSLKEAENLMQEEHDNQANVRSLVTWGNFAWMYYHMGRLAEAQTYLDKVENICKKLSNPFRYRMECPEIDCEEGWALLKCGGKNYERAKACFEKVLEVDPENPESSAGYAISAYRLDGFKLATKNHKPFSLLPLRQAVRLNPDNGYIKVLLALKLQDEGQEAEGEKYIEEALANMSSQTYVFRYAAKFYRRKGSVDKALELLKKALQETPTSVLLHHQIGLCYKAQMIQIKEATKGQPRGQNREKLDKMIRSAIFHFESAVEKKPTFEVAHLDLARMYIEAGNHRKAEENFQKLLCMKPVVEETMQDIHFHYGRFQEFQKKSDVNAIIHYLKAIKIEQASLTRDKSINSLKKLVLRKLRRKALDLESLSLLGFVYKLEGNMNEAEEYYERAERLAADFENSVRQGP
binding [5]: no binding (tested: 12 mg/ml)
binding [6]: no binding (tested: 18.0 μM)
binding [7]: no binding (tested: 2 mg/ml (~ 36 μM))
